## Results of single-concentration screens

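Whole-parasite assay of Trypanosoma brucei over 72 hours; the read-out is not stated. Compounds at 30 µM. Higher reads as stronger inhibition (inferred: compounds with an IC50 in retests scored well above the rest). Values scatter widely below zero; nearly all retest evidence comes from the higher of the two concentrations used. Size under these conditions: about 64,000 compounds, about 940 of them at 50% or above in at least one test.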

The filed quantity is “Percent Effect” (%).
The controls that fix the scale are not given in the record; negative values are as filed.
This is an unselected part of the compounds tested.

For COCCN(C)c1ccc(NCc2cscn2)nc1 the result was -63.5%.
For CNC(=O)CN1CCOCC2(CCCN(Cc3cccnc3)C2)C1.O=C(O)C(F)(F)F.O=C(O)C(F)(F)F.O=C(O)C(F)(F)F (stereo not given) the result was -38.78%.
For CS(=O)(=O)NCC1CCCN(C(=O)Nc2cccnc2N2CCCC2)C1 (stereo not given) the result was -22.04%.
For CCc1nccc(CN2CCC(CNC(=O)c3occc3C)C2)n1 (stereo not given) the result was -7.753%.
For COc1ccccc1C1CNC(=O)c2nc(-c3cn(C)nc3C)[nH]c2C1 (stereo not given) the result was -9.984%.
For CCCC(=O)N1CCC(C(=O)NCCN2CCC(C)CC2)CC1 the result was -29.36%.
For Cc1nc2cc(C(=O)N3C[C@@H](C(=O)O)[C@H](c4ccncc4)C3)ccc2[nH]1 the result was -33.32%.
For COc1ccc(CC(=O)N2CCN(Cc3ccco3)C[C@@H]2C)cc1OC the result was 0.3836%.
For Cn1ccc(C(=O)N2CCCC(n3cncn3)C2)cc1=O (stereo not given) the result was -7.118%.
For CCN(CC)CCn1cc(NC(=O)c2ccccc2OC)cn1 the result was -5.348%.
For CN(C)c1nccc(NC(=O)c2ccncc2)n1 the result was -23.21%.
For CCc1ccc(NC(=O)CCN2CC(n3nc(C)cc3C)C2)cc1 the result was -8.631%.
For O=C(CN1CCS(=O)(=O)CC1)Nc1ccc(N2CCCC2)nc1 the result was -777.7%.
For CCSc1ncc(-c2cc(C3CC3)nc(N)c2C#N)cn1 the result was -42.54%.
For Cn1nnc2c1C(COCC1CC1)CN(C(=O)[C@H]1CCCO1)C2 (stereo not given in full) the result was -43.19%.
For Cc1cccc(CN2CCCC3(CCC(=O)N3CCN(C)C)CC2)n1.O=C(O)C(F)(F)F.O=C(O)C(F)(F)F (stereo not given) the result was -77.7%.
For O=c1[nH]cnc2c1CCN(S(=O)(=O)c1ccc(Cl)cc1)C2 the result was -15.51%.
For COc1ccc(CC2(CO)CCN(c3cc(C#N)ccn3)CC2)cc1 the result was -45.22%.
For c1cc2c(cc1CSCc1noc(C3CC3)n1)OCCO2 the result was -36.9%.
For CO[C@H]1CO[C@@]2(CCCN(C(=O)C3CC=CC3)C2)C1 the result was -67.52%.
For CN1CCN(Cc2c(-c3ccco3)[nH]c3ncccc23)CC1 the result was 7.566%.
For Cc1c(CNC(=O)C2CCCN2C(=O)C2CC2)oc2ccccc12 (stereo not given) the result was -7.183%.
For CC(C)(C)OC(=O)N1CCC[C@H](NCC2CCOCC2)C1 the result was -80.55%.
For Fc1ccccc1Cc1noc(CN2CCCC(CN3CCCC3)C2)n1 (stereo not given) the result was 42.86%.
For N#Cc1ccccc1CNC(C(=O)N1CCOCC1)c1ccccc1 (stereo not given) the result was -49.12%.
For CC(C)CN1CCCC2(CCN(c3ccccn3)C2)C1.O=C(O)C(F)(F)F (stereo not given) the result was -8.323%.
For COc1ccc(C2=NOC(C#N)C2)cc1 (stereo not given) the result was -23.25%.
For Cc1nn2c(N3CCC(O)C3)cc(-c3ccccc3)nc2c1C (stereo not given) the result was -3.978%.
For CCN1CCCC1CNC(=O)CCSc1ccc2c(c1)OCCO2 (stereo not given) the result was -21.03%.
For [H][C@@]12CS(=O)(=O)C[C@]1([H])N(C(=O)c1snnc1C)CCN2C(=O)C1CCC1 the result was -26.45%.
For COCCN(Cc1ccccc1)Cc1nc(-c2ccsc2)no1 the result was -43.99%.

3 of the entries, repeated:

* CCN1CCCC1CNC(=O)CCSc1ccc2c(c1)OCCO2 (stereo not given) : -21.03%
* COCCN(Cc1ccccc1)Cc1nc(-c2ccsc2)no1 : -43.99%
* Cc1cccc(CN2CCCC3(CCC(=O)N3CCN(C)C)CC2)n1.O=C(O)C(F)(F)F.O=C(O)C(F)(F)F (stereo not given) : -77.7%

Data taken from ChEMBL document CHEMBL3988442, “University of Dundee, Small-Polar-MMV Screening Library” (2021).